# Results as given in the supplement of paper PMC12067093, “Discovery and optimisation of a covalent ligand for TRIM25 and its application to targeted protein ubiquitination” (Chemical Science, 2025).
# This is one part of the list.
# Compound: Cc1cc(ccc1-c1ccccc1)C(=O)N1CCCN(CC1)C(=O)CCl [compound 10]
# Assay: probe-labelled cysteine peptide fold change vs DMSO (competition) (log2 fold change); higher = less target engagement (more negative = stronger competition)
# Conditions: THP-1, incubation time: 4 h
# 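Further: competitive profiling in live THP-1 cells: cysteine peptides tagged with an iodoacetamide desthiobiotin (IA-DTB) probe, intensity after compound treatment relative to DMSO-treated cells.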
Target,probe-labelled cysteine peptide fold change (10 µM),probe-labelled cysteine peptide fold change (50 µM)
EED_O75530_126_VTLYECHSQGEIR (UniProt O75530),0.192,0.297
EEF1AKMT1_Q8WVE0_79_IACVSAPSVYQK (UniProt Q8WVE0),-0.0796,0.0648
EIF2AK4_Q9P2K8_285_CIGSDEQLGK (UniProt Q9P2K8),-0.0549,-0.0607
EIF2S3_P41091_96+101_LDDPSCPRPECYR (UniProt P41091),-0.389,-0.339
EGLN1_Q9GZT9_323_CVTCIYYLNK (UniProt Q9GZT9),0.243,0.0517
EIF3A_Q14152_198_LCDNLR (UniProt Q14152),0.0881,0.284
EFTUD2_Q15029_144_TCFVDCLIEQTHPEIRK (UniProt Q15029),-0.115,-0.232
EIF2S3_P41091_101_LDDPSCPRPECYR (UniProt P41091),-0.106,0.209
EHBP1L1_Q8N3D4_346_ETQAQACPQEGTEAHGAR (UniProt Q8N3D4),-0.258,-0.454
EIF2B4_Q9UI10_69_GAEPETGSAVSAAQCQVGPTR (UniProt Q9UI10),-0.249,-0.431
EEF1A2_Q05639_370_SDPPQEAAQFTSQVIILNHPGQISAGYSPVIDCHTAHIACK (UniProt Q05639),-0.0174,-0.107
EI24_O14681_24_DSIWGICTISK (UniProt O14681),-0.0668,-0.274
EHMT2_Q96KQ7_497_HHCCPGCGYFCTAGTFLECHPDFR (UniProt Q96KQ7),-0.181,-0.0725
EEF2_P13639_557_SDPMVQCIIEESGEHIIAGAGELHLEICLK (UniProt P13639),-0.0759,-0.0904
EHMT1_Q9H9B1_954_ENRYDCVVLFLSR (UniProt Q9H9B1),0.235,0.0096
EEFSEC_P57772_406_AGQATEGHCPR (UniProt P57772),0.493,0.392
ECPAS_Q5VYK3_1459_TSCALTIHAIGR (UniProt Q5VYK3),0.0645,0.102
EEF2_P13639_591_ETVSEESNVLCLSK (UniProt P13639),-0.29,-0.311
EIF3A_Q14152_160_QCLDLLR (UniProt Q14152),0.229,0.391
EIF2S2_P20042_309_CSVASIK (UniProt P20042),-0.0864,-0.0821
ECPAS_Q5VYK3_116_QCELAPTLLTAMEGKPQPQQDSLMHLLIPTLFHMK (UniProt Q5VYK3),0.0996,0.0921
EIF3B_P55884_700_DRFCQLLWR (UniProt P55884),-0.0412,0.305

# Quoted from the listing (two entries):
Target,probe-labelled cysteine peptide fold change (10 µM),probe-labelled cysteine peptide fold change (50 µM)
EEF1A2_Q05639_370_SDPPQEAAQFTSQVIILNHPGQISAGYSPVIDCHTAHIACK (UniProt Q05639),-0.0174,-0.107
EI24_O14681_24_DSIWGICTISK (UniProt O14681),-0.0668,-0.274

# (cont.)

Target,probe-labelled cysteine peptide fold change (10 µM),probe-labelled cysteine peptide fold change (50 µM)
EDC4_Q6P2E9_510_LFCVHTK (UniProt Q6P2E9),0.155,0.106
ECHS1_P30084_213_ICPVETLVEEAIQCAEK (UniProt P30084),-0.0143,0.0446
EIF2B2_P49770_194+198_FHVIVAECAPFCQGHEMAVNLSK (UniProt P49770),0.0606,0.24
EHMT2_Q96KQ7_754_EEDGSTCLHHAAK (UniProt Q96KQ7),0.126,0.14
EEF1A1_P68104_363_NDPPMEAAGFTAQVIILNHPGQISAGYAPVLDCHTAHIACK (UniProt P68104),-0.043,0.0117
EEF2_P13639_567_DLEEDHACIPIK (UniProt P13639),-0.283,0.14
ECI2_O75521_77_QATEGPCNMPKPGVFDLINK (UniProt O75521),0.0595,-0.44
EEA1_Q15075_346_DLDCQQLQSR (UniProt Q15075),-0.122,-0.0468
ECPAS_Q5VYK3_386_TLSLQFVHHICITCPEIK (UniProt Q5VYK3),-0.00947,0.329
EEF2_P13639_728_RCLYASVLTAQPR (UniProt P13639),-0.0326,-0.208
EHMT2_Q96KQ7_985_NITHLQHCTCVDDCSSSNCLCGQLSIR (UniProt Q96KQ7),-0.354,0.359
EDEM1_Q92611_629_VINSSSNCNR (UniProt Q92611),-0.171,0.236
EGLN1_Q9GZT9_127_AKPPADPAAAASPCR (UniProt Q9GZT9),-0.0565,-0.505
EIF2S1_P05198_98_VSPEEAIKCEDK (UniProt P05198),-0.267,-1.12
EEF2_P13639_369_YRCELLYEGPPDDEAAMGIK (UniProt P13639),-0.316,-0.329
EFR3A_Q14156_538_HIYLGCK (UniProt Q14156),0.00379,0.198
EDC3_Q96F86_477_IYLCDIGIPQQVFQEVGINYHSPFGCK (UniProt Q96F86),0.342,-0.513
ECT2_Q9H8V3_686_VETISLGEHPCDR (UniProt Q9H8V3),0.0694,-0.0551
EIF2A_Q9BY44_366_PVASDSTYFAWCPDGEHILTATCAPR (UniProt Q9BY44),0.0534,0.231
EIF3A_Q14152_478_HCDLQVR (UniProt Q14152),0.0566,-0.0509
ECPAS_Q5VYK3_1364_LCELIR (UniProt Q5VYK3),0.0333,0.207
EHHADH_Q08426_566_YCPIPDVLCELGR (UniProt Q08426),-0.206,-0.0812
